Test [1] deals with T1, SIGIRR wild type, expressed from pcDNA3-SIGIRR in HIECs (human) (UniProt Q6IA17).
T1 sequence: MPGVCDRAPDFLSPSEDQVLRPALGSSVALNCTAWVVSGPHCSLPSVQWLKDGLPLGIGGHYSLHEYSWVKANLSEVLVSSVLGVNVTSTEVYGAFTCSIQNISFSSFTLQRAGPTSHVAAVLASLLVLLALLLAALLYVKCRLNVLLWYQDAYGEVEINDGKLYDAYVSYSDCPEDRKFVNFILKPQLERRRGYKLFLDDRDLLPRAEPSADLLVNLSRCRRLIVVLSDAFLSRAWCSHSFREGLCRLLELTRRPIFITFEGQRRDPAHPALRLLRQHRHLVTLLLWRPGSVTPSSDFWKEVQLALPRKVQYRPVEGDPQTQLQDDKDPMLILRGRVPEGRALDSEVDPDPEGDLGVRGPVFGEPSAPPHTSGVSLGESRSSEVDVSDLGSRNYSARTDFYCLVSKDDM
Briefly: co-IP; HIECs transfected with pcDNA3 empty vector, pcDNA3-SIGIRR, or pcDNA3-SIGIRR plus pcDNA3-SIGIRR p168X mutant; immunoprecipitation with SIGIRR antibody, Western blot. In general terms: Immunoblotting shows a protein as a band on a membrane.

Sequences of proteins named here, by UniProt entry; tags and fusion partners are left off.
UniProt P51617: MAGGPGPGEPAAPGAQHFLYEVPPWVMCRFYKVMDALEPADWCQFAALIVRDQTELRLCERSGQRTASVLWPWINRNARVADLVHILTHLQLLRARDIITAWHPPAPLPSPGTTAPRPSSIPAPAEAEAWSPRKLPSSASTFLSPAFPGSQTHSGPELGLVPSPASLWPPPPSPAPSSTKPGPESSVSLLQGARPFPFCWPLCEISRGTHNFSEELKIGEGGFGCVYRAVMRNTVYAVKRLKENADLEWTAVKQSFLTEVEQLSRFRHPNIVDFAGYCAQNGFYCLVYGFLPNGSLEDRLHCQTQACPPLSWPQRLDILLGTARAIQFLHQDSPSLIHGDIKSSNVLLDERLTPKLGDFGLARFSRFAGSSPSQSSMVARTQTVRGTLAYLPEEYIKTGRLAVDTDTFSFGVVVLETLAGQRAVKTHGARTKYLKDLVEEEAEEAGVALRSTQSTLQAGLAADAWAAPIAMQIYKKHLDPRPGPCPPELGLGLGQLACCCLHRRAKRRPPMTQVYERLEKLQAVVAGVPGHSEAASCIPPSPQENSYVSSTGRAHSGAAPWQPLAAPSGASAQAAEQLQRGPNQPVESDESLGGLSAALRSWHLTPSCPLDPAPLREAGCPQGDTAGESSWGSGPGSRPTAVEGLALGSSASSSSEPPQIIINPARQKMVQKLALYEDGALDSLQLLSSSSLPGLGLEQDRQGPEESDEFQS
UniProt Q99836: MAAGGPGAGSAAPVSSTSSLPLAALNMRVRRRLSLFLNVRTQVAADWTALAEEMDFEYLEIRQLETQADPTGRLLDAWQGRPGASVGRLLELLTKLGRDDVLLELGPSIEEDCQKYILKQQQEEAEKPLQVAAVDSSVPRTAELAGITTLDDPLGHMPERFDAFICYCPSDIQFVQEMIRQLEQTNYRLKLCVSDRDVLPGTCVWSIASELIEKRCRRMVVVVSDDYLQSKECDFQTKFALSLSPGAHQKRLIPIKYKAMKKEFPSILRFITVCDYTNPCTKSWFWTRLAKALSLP

The target in test [2] is T2, single immunoglobulin interleukin-1-related receptor (SIGIRR), endogenous in HIECs (human (endogenous in HIEC-6)) (UniProt Q6IA17).
T2 sequence: T1 sequence
Nature of the test: co-IP; HIEC lysates immunoprecipitated by SIGIRR antibody, immunoblot of the complexes; endogenous proteins, at baseline without exogenous TLR ligand; normal IgG as control.

This passage reports binding results from publication PMC8688179.

These are yes or no findings as the source states them, for the method shown. Binding seen in cells or lysates may run through a third protein. Some entries that bind do so weakly or less than the wild type.

Regarding “interleukin-1-related-associated kinase 1 (IRAK1), endogenous in HIECs (from UniProt P51617 1-712) (enzyme)”, the binding entry in test [1] and in test [2] was “binds” in each case.

For the substance “myeloid differentiation primary response 88 (MYD88), endogenous in HIECs (from UniProt Q99836 1-296)”, the binding entry in test [1] and in test [2] was “binds” each time.
